Values from PubChem BioAssay AID1159578 (Peter MacCallum Cancer Centre, 2015).
Aim: 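Knock-downs that alter how fast lymphatic endothelial cells migrate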 (primary screen). Cells: human lymphatic endothelial cells. Knock-down reagent: siRNA pool against human genes, 40 nM. Timing: 48 h after transfection. Detection: 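High-content imaging of dye-stained cells in a scratch assay measures filled wound area and nuclei per well; duplicate means given as ratio to mock and robust z-score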. Direction: migration robust z-score: higher = faster migration into the scratch; migration relative to mock: higher = more scratch area covered than mock; nuclei per well: higher = more cells in the well. Call rule: 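Migration changed when robust z exceeds 2 or falls below -2 and mean nuclei number is at least 3300; otherwise not called changed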. Meaning of the calls: active = migration changed; inactive = no migration change, or too few cells.
Here is one part, drawn at random, of about 18,000 deposited reagents. About 1,030 of them (5.7%) count as active. 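Inactive calls also include pools with fewer than 3300 nuclei, whose migration was not assessed.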 The raw values are shown without normalisation. Unmarked entries are inactive.

| gene knocked down | migration robust z-score | migration class with cell-count check | migration relative to mock | nuclei per well, duplicate mean |
| --- | --- | --- | --- | --- |
| OAZ2 | 0.29 | migration z between -2 and 2; enough cells | 0.86 | 5864 |
| UBB | -9.15 | under 3300 nuclei; migration not judged | -1.49 | 482 |
| RAB37 | 0.77 | migration z between -2 and 2; enough cells | 1.08 | 5720 |
| CYP8B1 | -1.03 | migration z between -2 and 2; enough cells | 0.6 | 6122 |
| NDUFA11 | 0.13 | migration z between -2 and 2; enough cells | 0.83 | 5194 |
| ARL2 | 0.06 | migration z between -2 and 2; enough cells | 0.82 | 5404 |
| CD74 | -0.08 | migration z between -2 and 2; enough cells | 0.79 | 5769 |
| P3H1 | 0.42 | migration z between -2 and 2; enough cells | 0.88 | 6140 |
| IFT122 | 0.26 | migration z between -2 and 2; enough cells | 0.96 | 4948 |
| CCDC3 | 0.34 | migration z between -2 and 2; enough cells | 0.97 | 5634 |
| OR2W5 | -0.48 | migration z between -2 and 2; enough cells | 0.76 | 5022 |
| KCNK4 | -0.44 | migration z between -2 and 2; enough cells | 0.72 | 5366 |
| CD81 | 0.34 | migration z between -2 and 2; enough cells | 0.97 | 5800 |
| OR14K1 | -0.9 | migration z between -2 and 2; enough cells | 0.64 | 5971 |
| MCM3 | -1.38 | migration z between -2 and 2; enough cells | 0.54 | 7196 |
| USP15 | 0.16 | migration z between -2 and 2; enough cells | 0.84 | 5184 |
| ASIC1 | -1.22 | migration z between -2 and 2; enough cells | 0.57 | 4227 |
| LMO1 | -0.29 | migration z between -2 and 2; enough cells | 0.75 | 5366 |
| STEAP4 | -1.1 | migration z between -2 and 2; enough cells | 0.6 | 3606 |
| CYP2E1 | 0.29 | migration z between -2 and 2; enough cells | 0.86 | 7412 |
| TMEM63B | -1.89 | migration z between -2 and 2; enough cells | 0.4 | 4736 |
| TAS2R13 | -1.15 | migration z between -2 and 2; enough cells | 0.58 | 6086 |
| ZCCHC10 | 0.36 | migration z between -2 and 2; enough cells | 0.98 | 5834 |

4 of these entries, set out differently.
KCNK4 | migration robust z-score: -0.44; migration class with cell-count check: migration z between -2 and 2; enough cells; migration relative to mock: 0.72; nuclei per well, duplicate mean: 5366
CD81 | migration robust z-score: 0.34; migration class with cell-count check: migration z between -2 and 2; enough cells; migration relative to mock: 0.97; nuclei per well, duplicate mean: 5800
OR14K1 | migration robust z-score: -0.9; migration class with cell-count check: migration z between -2 and 2; enough cells; migration relative to mock: 0.64; nuclei per well, duplicate mean: 5971
MCM3 | migration robust z-score: -1.38; migration class with cell-count check: migration z between -2 and 2; enough cells; migration relative to mock: 0.54; nuclei per well, duplicate mean: 7196
